Experimental data: article PMC8786784

B1: Peroxiredoxin-2 (protein, UniProt P32119 1-198)
chain: MASGNARIGKPAPDFKATAVVDGAFKEVKLSDYKGKYVVLFFYPLDFTFVCPTEIIAFSNRAEDFRKLGCEVLGVSVDSQFTHLAWINTPRKEGGLGPLNIPLLADVTRRLSEDYGVLKTDEGIAYRGLFIIDGKGVLRQITVNDLPVGRSVDEALRLVQAFQYTDEHGEVCPAGWKPGSDTIKPNVDDSKEYFSKHN
B2: Adenylate kinase isoenzyme (protein, UniProt P00568 1-194)
chain: MEEKLKKTKIIFVVGGPGSGKGTQCEKIVQKYGYTHLSTGDLLRSEVSSGSARGKKLSEIMEKGQLVPLETVLDMLRDAMVAKVNTSKGFLIDGYPREVQQGEEFERRIGQPTLLLYVDAGPETMTQRLLKRGETSGRVDDNEETIKKRLETYYKATEPVIAFYEKRGIVRKVNAEGSVDSVFSQVCTHLDALK
B3: Quinone oxidoreductase (protein, UniProt Q08257 1-329)
chain: MATGQKLMRAVRVFEFGGPEVLKLRSDIAVPIPKDHQVLIKVHACGVNPVETYIRSGTYSRKPLLPYTPGSDVAGVIEAVGDNASAFKKGDRVFTSSTISGGYAEYALAADHTVYKLPEKLDFKQGAAIGIPYFTAYRALIHSACVKAGESVLVHGASGGVGLAACQIARAYGLKILGTAGTEEGQKIVLQNGAHEVFNHREVNYIDKIKKYVGEKGIDIIIEMLANVNLSKDLSLLSHGGRVIVVGSRGTIEINPRDTMAKESSIIGVTLFSSTKEEFQQYAAALQAGMEIGWLKPVIGSQYPLEKVAEAHENIIHGSGATGKMILLL
B4: Fructose-bisphosphate aldolase C (protein, UniProt P09972 1-364)
chain: MPHSYPALSAEQKKELSDIALRIVAPGKGILAADESVGSMAKRLSQIGVENTEENRRLYRQVLFSADDRVKKCIGGVIFFHETLYQKDDNGVPFVRTIQDKGIVVGIKVDKGVVPLAGTDGETTTQGLDGLSERCAQYKKDGADFAKWRCVLKISERTPSALAILENANVLARYASICQQNGIVPIVEPEILPDGDHDLKRCQYVTEKVLAAVYKALSDHHVYLEGTLLKPNMVTPGHACPIKYTPEEIAMATVTALRRTVPPAVPGVTFLSGGQSEEEASFNLNAINRCPLPRPWALTFSYGRALQASALNAWRGQRDNAGAATEEFIKRAEVNGLAAQGKYEGSGEDGGAAAQSLYIANHAY
B5: Immunoglobulin superfamily member 8 (protein, UniProt Q969P0 28-613)
chain: REVLVPEGPLYRVAGTAVSISCNVTGYEGPAQQNFEWFLYRPEAPDTALGIVSTKDTQFSYAVFKSRVVAGEVQVQRLQGDAVVLKIARLQAQDAGIYECHTPSTDTRYLGSYSGKVELRVLPDVLQVSAAPPGPRGRQAPTSPPRMTVHEGQELALGCLARTSTQKHTHLAVSFGRSVPEAPVGRSTLQEVVGIRSDLAVEAGAPYAERLAAGELRLGKEGTDRYRMVVGGAQAGDAGTYHCTAAEWIQDPDGSWAQIAEKRAVLAHVDVQTLSSQLAVTVGPGERRIGPGEPLELLCNVSGALPPAGRHAAYSVGWEMAPAGAPGPGRLVAQLDTEGVGSLGPGYEGRHIAMEKVASRTYRLRLEAARPGDAGTYRCLAKAYVRGSGTRLREAASARSRPLPVHVREEGVVLEAVAWLAGGTVYRGETASLLCNISVRGGPPGLRLAASWWVERPEDGELSSVPAQLVGGVGQDGVAELGVRPGGGPVSVELVGPRSHRLRLHSLGPEDEGVYHCAPSAWVQHADYSWYQAGSARSGPVTVYPYMHALDTLFVPLLVGTGVALVTGATVLGTITCCFMKRLRKR
B6: Cysteine-rich protein 2 (protein, UniProt P52943 1-208)
chain: MASKCPKCDKTVYFAEKVSSLGKDWHKFCLKCERCSKTLTPGGHAEHDGKPFCHKPCYATLFGPKGVNIGGAGSYIYEKPLAEGPQVTGPIEVPAARAEERKASGPPKGPSRASSVTTFTGEPNTCPRCSKKVYFAEKVTSLGKDWHRPCLRCERCGKTLTPGGHAEHDGQPYCHKPCYGILFGPKGVNTGAVGSYIYDRDPEGKVQP
B7: Dihydropteridine reductase (protein, UniProt P09417 1-244)
chain: MAAAAAAGEARRVLVYGGRGALGSRCVQAFRARNWWVASVDVVENEEASASIIVKMTDSFTEQADQVTAEVGKLLGEEKVDAILCVAGGWAGGNAKSKSLFKNCDLMWKQSIWTSTISSHLATKHLKEGGLLTLAGAKAALDGTPGMIGYGMAKGAVHQLCQSLAGKNSGMPPGAAAIAVLPVTLDTPMNRKSMPEADFSSWTPLEFLVETFHDWITGKNRPSSGSLIQVVTTEGRTELTPAYF

molecular target: amyloid-β (Aβ) peptide (human (endogenous in brain tissue)) (UniProt P05067); assay: condition: only tris-soluble fraction of sAD brains; affinity purification with mass spectrometry; as a1, tris-soluble fraction of sAD brains only

Row | binding | Binder
1 | no binding | B1

molecular target: amyloid-β (Aβ) peptide (human (endogenous in brain tissue)) (UniProt P05067); assay: affinity purification with mass spectrometry; co-IP of Aβ from the tris-soluble fraction (500 ug protein) of human frontal cortex (controls, sAD, rpAD; n = 4) on Dynabeads coated with antibodies 4G8 and 6E10, overnight at 4 °C, washes with 0.3% CHAPS; LC-ESI MS/MS of the tryptic digest

Row | binding | Binder
2 | binds | B2
3 | binds | B1
4 | binds | B3
5 | binds | B4
6 | binds | B5
7 | binds | B6
8 | binds | B7

No constants are given. Whether binding was seen depends on the method and setting. Binding seen in cells or lysates may run through a third protein. A yes stands for co-enrichment or nearness to the bait. Other partners may have been found. For some assays here: No binding means not detected with the bait.
